Measured values reported in the supplement of paper PMC12282887.
These are raw signals, not scaled to a control.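 For antimicrobials the highest concentration approximated the MIC. Most other compounds topped out at 500 µM, and known inducer-like compounds reached up to 1 mM. Inocula for deletion strains were tenfold smaller, and any well growing below 10% of the overall median was considered non-growing.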

Test system: Escherichia coli BW25113
Experiment: growth (OD600 area under curve, 8 h) (OD600 x h); higher = more growth
Experimental: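 E. coli BW25113 reporter strains (wild type, ΔmarA, ΔsoxS, Δrob, each carrying one of 8 lux reporter plasmids) were grown in 40 µl LB in 384-well plates at 37°C, 800 rpm, with each compound at 4 two-fold concentrations, in biological duplicates. Growth is the baseline-corrected OD600 area under the curve over 8 h (0-8 h WT, 1-9 h deletion strains).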

COc1c(N2C[C@@H]3CCCN[C@@H]3C2)c(F)cc2c(=O)c(C(=O)O)cn(C3CC3)c12 [Moxifloxacin]
growth
Details | reporter plasmid: EVC | reporter plasmid: acrABp | reporter plasmid: marRABp | reporter plasmid: micFp | reporter plasmid: ompFp | reporter plasmid: robp | reporter plasmid: soxSp | reporter plasmid: tolCp
0.011 µg/ml, genetic background: wild type | 2.79 | 3.07 | 3.05 | 2.94 | 2.8 | 3.12 | 2.97 | 2.945
0.011 µg/ml, genetic background: ΔmarA | 3.11 | 3.52 | 3.35 | 3.18 | 3.06 | 3.22 | 3 | 2.7
0.011 µg/ml, genetic background: Δrob | 2.79 | 2.81 | 3.32 | 3.19 | 2.43 | 2.53 | 2.85 | 3.02
0.011 µg/ml, genetic background: ΔsoxS | 2.94 | 2.92 | 3.03 | 2.67 | 2.7 | 2.92 | 2.97 | 2.85
0.022 µg/ml, genetic background: wild type | 2.426 | 2.27 | 2.82 | 2.37 | 2.26 | 2.63 | 2.698 | 2.48
0.022 µg/ml, genetic background: ΔmarA | 2.1 | 2.29 | 2 | 2.6 | 2.46 | 2.06 | 2.7 | 1.6
0.022 µg/ml, genetic background: Δrob | 2.32 | 2.2 | 2.32 | 2.61 | 1.76 | 1.68 | 2.78 | 2.08
0.022 µg/ml, genetic background: ΔsoxS | 2.55 | 2.47 | 2.75 | 2.05 | 2.05 | 2.42 | 2.5 | 2.48
0.044 µg/ml, genetic background: wild type | 0.933 | 0.392 | 1.03 | 0.861 | 0.439 | 0.869 | 2.38 | 1.14
0.044 µg/ml, genetic background: ΔmarA | 0.243 | -0.108 | 0.0613 | 0.789 | 0.222 | -0.056 | 2.16 | 0.0944
0.044 µg/ml, genetic background: Δrob | 0.631 | 0.123 | 0.165 | 0.635 | -0.0248 | -0.00854 | 2.34 | 0.276
0.044 µg/ml, genetic background: ΔsoxS | 0.885 | 0.779 | 0.833 | 0.548 | 0.143 | 0.3663 | 1.17 | 0.991
0.088 µg/ml, genetic background: wild type | 0.192 | -0.265 | 0.145 | 0.169 | 0.0195 | 0.1 | 0.209 | 0.185
0.088 µg/ml, genetic background: ΔmarA | -0.0354 | -0.219 | 0.00943 | -0.0451 | -0.0948 | -0.0503 | -0.0627 | -0.0218
0.088 µg/ml, genetic background: Δrob | -0.103 | -0.337 | -0.01 | -0.0302 | -0.1 | -0.0635 | -0.0156 | -0.0412
0.088 µg/ml, genetic background: ΔsoxS | 0.0175 | -0.0409 | 0.0222 | -0.0458 | 0.00152 | -0.0068 | -0.0427 | -0.00721

CO[C@@H]1[C@@H](OC(N)=O)[C@@H](O)[C@H](Oc2ccc3c(O)c(NC(=O)c4ccc(O)c(CC=C(C)C)c4)c(=O)oc3c2C)OC1(C)C [Novobiocin]
growth
Details | reporter plasmid: EVC | reporter plasmid: acrABp | reporter plasmid: marRABp | reporter plasmid: micFp | reporter plasmid: ompFp | reporter plasmid: robp | reporter plasmid: soxSp | reporter plasmid: tolCp
2.4 µg/ml, genetic background: wild type | 3.2 | 3.11 | 3.14 | 3.42 | 3.17 | 3.2 | 3.37 | 3.32
2.4 µg/ml, genetic background: ΔmarA | 3.31 | 3.96 | 3.48 | 3.38 | 3.43 | 3.63 | 3.05 | 3.02
2.4 µg/ml, genetic background: Δrob | 3.31 | 2.8 | 3.43 | 3.26 | 2.61 | 2.77 | 3.205 | 3.284
2.4 µg/ml, genetic background: ΔsoxS | 3.45 | 3.39 | 3.14 | 3.14 | 3.16 | 3.25 | 3.266 | 3.37
4.8 µg/ml, genetic background: wild type | 3.35 | 3.42 | 3.2 | 3.32 | 3.12 | 3.13 | 3.26 | 3.43
4.8 µg/ml, genetic background: ΔmarA | 3.1 | 3.7 | 3.28 | 3.54 | 3.25 | 3.27 | 3.23 | 2.9
4.8 µg/ml, genetic background: Δrob | 3.34 | 2.52 | 3.28 | 3.33 | 2.46 | 2.58 | 3.35 | 3.341
4.8 µg/ml, genetic background: ΔsoxS | 3.58 | 3.39 | 3.01 | 3.21 | 3.11 | 2.98 | 3.19 | 3.58
9.5 µg/ml, genetic background: wild type | 3.47 | 2.94 | 3.42 | 3.29 | 3.16 | 3.35 | 3.35 | 3.43
9.5 µg/ml, genetic background: ΔmarA | 3.35 | 3.95 | 3.46 | 3.49 | 3.54 | 3.81 | 3.11 | 3.03
9.5 µg/ml, genetic background: Δrob | 3.26 | 2.96 | 3.42 | 3.47 | 2.78 | 2.86 | 3.26 | 3.47
9.5 µg/ml, genetic background: ΔsoxS | 3.54 | 3.57 | 3.32 | 3.22 | 2.94 | 3.45 | 3.27 | 3.47
19 µg/ml, genetic background: wild type | 3.14 | 2.19 | 2.63 | 2.72 | 2.62 | 2.46 | 3.08 | 2.98
19 µg/ml, genetic background: ΔmarA | 2.13 | 0.45 | 0.991 | 2.49 | 1.32 | 2.08 | 3.26 | 1.87
19 µg/ml, genetic background: Δrob | 2.65 | 0.627 | 2.23 | 2.31 | 1.08 | 0.816 | 3.05 | 2.92
19 µg/ml, genetic background: ΔsoxS | 3.18 | 1.72 | 2.11 | 2.56 | 1.39 | 1.36 | 2.84 | 3.21

C[n+]1ccc(-c2cc[n+](C)cc2)cc1 [Paraquat]
growth
Details | reporter plasmid: EVC | reporter plasmid: acrABp | reporter plasmid: marRABp | reporter plasmid: micFp | reporter plasmid: ompFp | reporter plasmid: robp | reporter plasmid: soxSp | reporter plasmid: tolCp
0.64 µg/ml, genetic background: wild type | 3.17 | 3.07 | 3.03 | 3.27 | 2.95 | 3.19 | 2.83 | 3.3
0.64 µg/ml, genetic background: ΔmarA | 3.2 | 3.95 | 3.5 | 3.18 | 3.34 | 3.48 | 2.68 | 2.91
0.64 µg/ml, genetic background: Δrob | 3.13 | 2.98 | 3.15 | 3.23 | 2.45 | 2.63 | 2.72 | 3.28
0.64 µg/ml, genetic background: ΔsoxS | 3.43 | 3.1 | 2.85 | 3.04 | 3.13 | 3.05 | 2.85 | 3.32
1.3 µg/ml, genetic background: wild type | 3.07 | 3.1 | 3.065 | 3.15 | 2.85 | 3.111 | 2.74 | 3.28
1.3 µg/ml, genetic background: ΔmarA | 3.04 | 3.95 | 3.42 | 2.95 | 3.32 | 3.51 | 2.45 | 2.8
1.3 µg/ml, genetic background: Δrob | 2.91 | 2.82 | 3.15 | 2.95 | 2.38 | 2.61 | 2.5 | 3.15
1.3 µg/ml, genetic background: ΔsoxS | 3.19 | 3.12 | 2.81 | 2.85 | 3.07 | 3 | 2.59 | 3.2
2.6 µg/ml, genetic background: wild type | 3.11 | 2.71 | 2.92 | 3.06 | 2.9 | 3.13 | 2.43 | 3.1
2.6 µg/ml, genetic background: ΔmarA | 2.91 | 3.89 | 3.54 | 2.99 | 3.23 | 3.5 | 2.17 | 2.63
2.6 µg/ml, genetic background: Δrob | 3.06 | 2.92 | 3.17 | 2.82 | 2.22 | 2.55 | 2.34 | 3.25
2.6 µg/ml, genetic background: ΔsoxS | 3.1 | 3.12 | 3.04 | 2.95 | 3.08 | 3.23 | 2.36 | 3.21
5.1 µg/ml, genetic background: wild type | 2.48 | 1.55 | 1.98 | 1.88 | 1.44 | 1.94 | 1.64 | 2.54
5.1 µg/ml, genetic background: ΔmarA | 2.39 | 2.98 | 2.11 | 2.24 | 1.89 | 2.58 | 1.28 | 1.95
5.1 µg/ml, genetic background: Δrob | 2.44 | 1.58 | 1.97 | 2.12 | 1 | 1.28 | 1.46 | 2.62
5.1 µg/ml, genetic background: ΔsoxS | 2.62 | 0.888 | 1.07 | 0.942 | 0.323 | 0.309 | 1.09 | 2.51

C/C(=C\C(=O)OCCCCCCCCC(=O)O)C[C@@H]1OC[C@H](C[C@@H]2O[C@H]2[C@@H](C)[C@H](C)O)[C@@H](O)[C@H]1O [Pseudomonic acid]
growth
Details | reporter plasmid: EVC | reporter plasmid: acrABp | reporter plasmid: marRABp | reporter plasmid: micFp | reporter plasmid: ompFp | reporter plasmid: robp | reporter plasmid: soxSp | reporter plasmid: tolCp
0.25 µg/ml, genetic background: wild type | 2.96 | 3.27 | 3.19 | 3.24 | 3.01 | 3.13 | 3.26 | 3.19
0.25 µg/ml, genetic background: ΔmarA | 3.14 | 4.32 | 3.78 | 3.47 | 3.48 | 3.92 | 2.97 | 2.98
0.25 µg/ml, genetic background: Δrob | 3.32 | 2.968 | 3.37 | 3.06 | 2.49 | 2.84 | 2.93 | 3.19
0.25 µg/ml, genetic background: ΔsoxS | 3.26 | 3.33 | 3.1 | 3.06 | 2.92 | 3.19 | 3.25 | 3.23
0.5 µg/ml, genetic background: wild type | 3.18 | 3.42 | 3.27 | 3.32 | 2.96 | 3.21 | 3.35 | 3.41
0.5 µg/ml, genetic background: ΔmarA | 3.07 | 4.11 | 3.421 | 3.57 | 3.35 | 3.64 | 3.15 | 3.03
0.5 µg/ml, genetic background: Δrob | 3.23 | 2.94 | 3.3 | 3.39 | 2.44 | 2.82 | 3.24 | 3.3827
0.5 µg/ml, genetic background: ΔsoxS | 3.63 | 3.54 | 3.18 | 3.3 | 3.21 | 3.16 | 3.4 | 3.657
1 µg/ml, genetic background: wild type | 3.25 | 3.54 | 3.47 | 3.32 | 3.25 | 3.4028 | 3.33 | 3.337
1 µg/ml, genetic background: ΔmarA | 3.19 | 4.19 | 3.73 | 3.5 | 3.44 | 3.98 | 3.04 | 3.03
1 µg/ml, genetic background: Δrob | 3.28 | 3.36 | 3.54 | 3.31 | 2.89 | 2.92 | 3.2 | 3.39
1 µg/ml, genetic background: ΔsoxS | 3.5 | 3.52 | 3.5 | 3.18 | 3.4 | 3.42 | 3.26 | 3.53
2 µg/ml, genetic background: wild type | 3.11 | 2.898 | 2.99 | 2.852 | 2.39 | 2.6322 | 3.15 | 3.07
2 µg/ml, genetic background: ΔmarA | 2.71 | 3.16 | 2.8 | 3.21 | 2.88 | 3.09 | 2.76 | 2.65
2 µg/ml, genetic background: Δrob | 3.09 | 2.16 | 2.94 | 2.91 | 2.02 | 2.16 | 2.98 | 2.96
2 µg/ml, genetic background: ΔsoxS | 3.33 | 2.93 | 2.57 | 2.92 | 2.43 | 2.54 | 3.096 | 3.32
